Data reported in PMC4941368.
Construct, isoform or probe ends are uncertain for at least one entry. Where cells or extracts were used, other partners may take part. Weaker means in comparison with the reference protein, sequence or condition of that experiment.

Amino acid sequences for entries named in this document (tags omitted).
UniProt P49715, whole entry: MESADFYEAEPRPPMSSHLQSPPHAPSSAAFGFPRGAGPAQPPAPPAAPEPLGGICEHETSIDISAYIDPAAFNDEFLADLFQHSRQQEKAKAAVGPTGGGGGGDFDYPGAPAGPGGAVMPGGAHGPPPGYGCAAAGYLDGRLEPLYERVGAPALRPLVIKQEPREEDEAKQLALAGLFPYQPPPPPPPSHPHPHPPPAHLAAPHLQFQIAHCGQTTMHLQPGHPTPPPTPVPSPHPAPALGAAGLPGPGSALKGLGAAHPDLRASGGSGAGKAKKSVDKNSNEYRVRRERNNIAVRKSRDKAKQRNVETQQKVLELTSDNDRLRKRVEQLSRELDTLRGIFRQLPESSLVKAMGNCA

Biological target: C/EBPα (UniProt P49715)
Assay: EMSA
Details: 4 µg Huh7 nuclear extract, 50 fmol 3'-biotin probe, 5% native PAGE at 4°C, chemiluminescence, preincubation with c-myc or antibody 1 h at 4°C, protein in an extract, label: 3'-biotin

## GAGAAAGAATTGTTTACTTTTAAACCCTGGA (double strand) [miR-122 promoter C/EBPα-binding probe]
Complex lost after C/EBPα antibody depletion of extract, reduced by 100x unlabeled probe
  binding result: binds
Extract preincubated with recombinant His6-c-myc, dose-dependent inhibition of binding
  binding result: binds more weakly
